# Measured values taken from PubChem BioAssay AID493014 (National Center for Advancing Translational Sciences (NCATS), 2011).
# The other results are listed elsewhere or left out. Further columns of the screen follow, without active or inactive calls. Compounds called inactive in the main read-out are mostly missing here. Words in brackets tell the shape of the fitted curve; partial curves, single points and poor fits give uncertain potencies.
# Assay: qHTS Assay to Find Inhibitors of Chronic Active B-Cell Receptor Signaling
# Conditions: ABC-DLBCL IkBa-CBG/CBR reporter, luminescence ratio (green luciferase fused to IkBa over red control in TMD8 lymphoma cells), 4 h
# Summary of the method: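 Compounds up to 46 uM were incubated four hours with TMD8 cells whose green CBG68 luciferase is fused to IkappaBalpha; red CBR luminescence normalised the signal, and concentration-effect curves were fitted to fusion, red and ratio data.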
# [1] = measured here: CBR red luminescence, cell number
# [2] = measured here: IkBa-CBG green luminescence
compound,measurement,setting,value
COc1ccccc1C/C(N)=N/OC(=O)COc1cccc(C)c1,AC50,[1],"10.3 µM [rising, partial curve, poor fit]"
C/C(=N\OC(=O)c1cccc(Cl)c1)c1sc(C)nc1C,AC50,[1],"16.4 µM [falling, single point]"
O=C(Nc1cccnc1)OC1CCCC1,AC50,[1],"1.58 µM [rising, partial curve, poor fit]"
CC(=O)Nc1nc2c(s1)C(=O)NCC(C)(C)C2,AC50,[1],"1.26 µM [rising, full curve, poor fit]"
CCC1=NN(C(=O)C(=O)Nc2ccc(Br)cc2)C(O)(C(F)(F)F)C1 (stereo not given),AC50,[1],"25.1 µM [falling, single point]"
CC1(C)CC(=O)C(C(C#Cc2ccccc2)C2=C(O)CC(C)(C)CC2=O)=C(O)C1,AC50,[1],"11.2 µM [falling, partial curve]"
Cc1nn2c(C)c(C(=O)Nc3ccccc3)cnc2c1-c1ccccc1,AC50,[1],"2.82 µM [rising, partial curve, poor fit]"
CN(C)C(=S)Nc1cccc(C(F)(F)F)c1,AC50,[1],"35.5 µM [falling, single point]"
COc1ccc(N(C(=O)C2CCCCC2)C2C=CS(=O)(=O)C2)c(OC)c1 (stereo not given),AC50,[1],"4.11 µM [rising, full curve, poor fit]"
COc1ccc(NC(=S)SC)cc1OC,AC50,[1],"32.6 µM [falling, partial curve, poor fit]"
Cc1ccc(S(=O)(=O)N2CCC(=O)N(CCOC(=O)Nc3cc(C)cc(C)c3)CC2)cc1,AC50,[2],"23.1 µM [falling, partial curve, poor fit]"
COc1ccc(OC)c(/C=N/NC(=O)CC(=O)NC2CCCCC2)c1,AC50,[1],"0.794 µM [falling, partial curve, poor fit]"
COc1cccc(-c2c(-c3cc(OC)cc(OC)c3)n(C)c3ccc(-c4cccc5[nH]ccc45)cc23)c1,AC50,[1],"0.92 µM [falling, full curve, poor fit]"
CCOC(=O)CSc1nc2c(c(-c3ccc(C)o3)c1C#N)CCCC2,AC50,[1],"16.4 µM [falling, partial curve, poor fit]"
c1ccc(C(Cc2nc(-c3ccccn3)no2)c2ccccc2)cc1,AC50,[1],"7.31 µM [falling, partial curve]"
Cn1nc(C(F)(F)F)c2cc(NC(=O)OCc3ccc(F)cc3)sc21,AC50,[1],"3.55 µM [falling, single point]"
Cc1ccc(S(=O)(=O)N2CCN(C(=O)C3CC3C)CC2)c(C)c1 (stereo not given),AC50,[1],"16.4 µM [falling, partial curve, poor fit]"
Cc1ccccc1OCCn1c(CCNC(=O)C(C)C)nc2ccccc21,AC50,[1],"11.6 µM [falling, partial curve, poor fit]"
O=C(CSCc1cnn(-c2ccccc2)c1-n1cccc1)NCc1cccs1,AC50,[1],"16.4 µM [falling, single point]"
Cc1cccc(NC(=S)NCCC(c2ccccc2)c2ccccc2)c1,AC50,[1],"20.6 µM [falling, single point]"
Cc1ccc(N=Cc2c(O)ccc3ccccc23)cc1F,AC50,[1],"20.6 µM [falling, single point]"
Cc1ccc(CN2CCN(Cc3ccccc3)C(CCO)C2)s1 (stereo not given),AC50,[1],"12.6 µM [rising, partial curve, poor fit]"
CN=C(Nc1ccccc1)SC1CC(=O)N(c2cccc(OC)c2)C1=O (stereo not given),AC50,[1],"15.8 µM [falling, partial curve, poor fit]"
O=C(N/N=C/c1cccc(OCC(=O)N2CCCC2)c1)C(=O)Nc1ccccc1F,AC50,[1],"25.9 µM [falling, partial curve, poor fit]"
CCN1CC(CN(C)Cc2cn(-c3cccc(C)c3)nc2-c2cccc(F)c2)CC1=O (stereo not given),AC50,[1],"35.5 µM [falling, single point]"
CCCc1[nH]n(-c2nc3ccccc3s2)c(=O)c1C=NCCCOC,AC50,[1],"12.6 µM [falling, partial curve, poor fit]"
COc1cc2c(cc1NC(=O)CCC(=O)O)oc1ccccc12,AC50,[1],"10 µM [falling, partial curve, poor fit]"
Cc1ccc(Nc2nnc(SCC(=O)Nc3ccc(S(=O)(=O)N4CCOCC4)cc3)s2)cc1,AC50,[1],"0.00411 µM [falling, full curve, poor fit]"
C/C=C/C(=O)Nc1cccc(C2=NOC3(C2)C[C@@H](C(N)=O)N(C(=O)c2cc([N+](=O)[O-])cc([N+](=O)[O-])c2C)C3)c1 (stereo not given in full),AC50,[1],"1 µM [rising, full curve, poor fit]"
O=C(N/N=C/c1ccsc1)c1ccc2c(c1)OCO2,AC50,[1],"7.31 µM [falling, partial curve]"
COc1cc2c(cc1OC)C(c1ccc(-c3ccc(Cl)cc3Cl)o1)=NCC2,AC50,[1],"12.6 µM [falling, partial curve, poor fit]"
CC(C)c1nnc(NC(=O)c2cc3ccccc3o2)s1,AC50,[1],"1.26 µM [falling, full curve, poor fit]"
CC(=O)NCC1CCCN(C(=O)c2ccc(OC3CCN(Cc4ccccn4)CC3)cc2)C1 (stereo not given),AC50,[1],"35.5 µM [rising, single point]"
O=S(=O)(c1cccc2cccnc12)N1CCN(Cc2ccc3c(c2)OCO3)CC1,AC50,[1],"22.4 µM [rising, single point]"
O=C(Cc1ccc(-n2c(=S)[nH]c3ccccc3c2=O)cc1)N1CCN(c2ccccc2)CC1,AC50,[1],"18.4 µM [rising, partial curve]"
Cn1cc(C(=O)Nc2ccc(F)c(F)c2)cn1,AC50,[1],"29.1 µM [rising, single point]"
C#CCOCCOCCOCCNc1nc(N2CCN(C(=O)CCCCCCCCCCNC(=O)Cn3cc(CCCCCN)nn3)CC2)nc(N2CCN(C(=O)CCCCCCCCCCNC(=O)Cn3cc(C[C@@H](C)O)nn3)CC2)n1,AC50,[1],"23.1 µM [rising, partial curve]"
O=C(Oc1cccc(/C=N/NC(=O)c2ccccn2)c1)c1ccc([N+](=O)[O-])cc1,AC50,[1],"11.2 µM [falling, single point]"
Cc1onc(-c2ccccc2)c1C(=O)OCC(=O)c1ccccc1,AC50,[1],"6.51 µM [falling, single point]"
COc1cc(-c2cc(C(=O)N(C)Cc3ccccc3)c3ccccc3n2)cc(OC)c1OC,AC50,[1],"3.16 µM [rising, single point]"
c1ccc(-c2csc(NNC3=NCCCCC3)n2)cc1,AC50,[1],"4.11 µM [falling, partial curve, poor fit]"
Fc1ccc(OCc2nc3ccccc3s2)cc1,AC50,[1],"15.8 µM [falling, single point]"
CN(C)c1ccc(/C=N/NC(=O)c2cnc3ccccc3c2)cc1,AC50,[1],"15.8 µM [falling, single point]"
NC(N)=Nc1nc(-c2ccccc2)c2ccccc2n1,AC50,[1],"2.24 µM [falling, partial curve, poor fit]"
CCOc1cccc(C(=O)Nc2nccs2)c1,AC50,[1],"18.4 µM [falling, partial curve, poor fit]"
same,AC50,[2],"20.6 µM [rising, partial curve, poor fit]"
Cc1cc(=O)oc2cc(NC(=O)c3ccccc3C(=O)O)ccc12,AC50,[1],"14.1 µM [falling, single point]"
CC1Oc2ccccc2N(CC(=O)N(Cc2ccccc2)Cc2ccccn2)C1=O (stereo not given),AC50,[1],"0.00461 µM [rising, full curve, poor fit]"
O=C(O/N=C/c1cccc([N+](=O)[O-])c1)C1CC1,AC50,[1],"1.3 µM [rising, full curve, poor fit]"
Cc1cccc(NS(=O)(=O)c2ccc(C3CCCCC3)cc2)c1,AC50,[1],"25.1 µM [rising, partial curve, poor fit]"
Cc1ccc(S(=O)(=O)N(CCC(=O)NCc2ccccc2F)c2ccccc2)cc1,AC50,[1],"8.2 µM [rising, partial curve, poor fit]"
C/C(CC(=O)Nc1ccccn1)=N\NC(=O)C(=O)Nc1cccc(Cl)c1C,AC50,[1],"17.8 µM [falling, partial curve, poor fit]"
COCCNC(=S)NN=C1CCC(c2ccccc2)CC1 (stereo not given),AC50,[1],"28.2 µM [falling, single point]"
same,AC50,[2],"25.1 µM [falling, single point]"
COc1ccc(OCC(=O)NNc2c3ccccc3nc3ccccc23)cc1,AC50,[1],"16.4 µM [falling, single point]"
same,AC50,[2],"25.9 µM [rising, partial curve, poor fit]"
Cc1ccc(C(=O)Nc2ccccc2C(=O)N2CCCCCC2)cc1,AC50,[1],"0.631 µM [rising, partial curve, poor fit]"
O=C(Nc1ccccc1N1CCOCC1)c1ccc(Cl)c(S(=O)(=O)NCc2ccco2)c1,AC50,[1],"35.5 µM [falling, single point]"
O=C(CC1(O)C(=O)N(C/C=C/c2ccccc2)c2ccccc21)c1ccccn1 (stereo not given),AC50,[1],"22.4 µM [rising, single point]"
same,AC50,[2],"20 µM [falling, single point]"
O=C(NC(=O)c1ccccc1)Nc1ccccc1O,AC50,[1],"3.16 µM [falling, full curve]"
Cc1cccc2c(C(=O)N3CCN(C(=O)c4ccco4)CC3)cc(-c3cccc(Br)c3)nc12,AC50,[1],"10 µM [falling, partial curve, poor fit]"
COc1cc(Br)c(Br)cc1N,AC50,[1],"0.0891 µM [rising, full curve, poor fit]"
COc1ccc(NC(=O)COC(=O)c2cc(=O)c3ccccc3o2)cc1OC,AC50,[1],"14.6 µM [rising, partial curve]"
COC(=O)c1ccccc1NC(=O)CCS(=O)(=O)c1ccc(Br)s1,AC50,[1],"6.51 µM [falling, single point]"

# Quoted at random: three records from the list.
compound,measurement,setting,value
CCOc1cccc(C(=O)Nc2nccs2)c1,AC50,[1],"18.4 µM [falling, partial curve, poor fit]"
Cc1ccc(S(=O)(=O)N2CCC(=O)N(CCOC(=O)Nc3cc(C)cc(C)c3)CC2)cc1,AC50,[2],"23.1 µM [falling, partial curve, poor fit]"
CN(C)c1ccc(/C=N/NC(=O)c2cnc3ccccc3c2)cc1,AC50,[1],"15.8 µM [falling, single point]"
